Results are given in words; binding and its absence hold for the method and conditions named. Binding seen in cells or lysates may run through a third protein. Binding can be weak; no strength is given.
Biological target: soluble PDGF-alpha receptor (UniProt P16234)
Assay: proximity ligation competition assay in solution (aptamer proximity-probes, TaqMan PCR read-out)

Chains of the proteins cited; added tags and fusions are not shown. Residues count along the entry.
UniProt P16234, residues 24-524: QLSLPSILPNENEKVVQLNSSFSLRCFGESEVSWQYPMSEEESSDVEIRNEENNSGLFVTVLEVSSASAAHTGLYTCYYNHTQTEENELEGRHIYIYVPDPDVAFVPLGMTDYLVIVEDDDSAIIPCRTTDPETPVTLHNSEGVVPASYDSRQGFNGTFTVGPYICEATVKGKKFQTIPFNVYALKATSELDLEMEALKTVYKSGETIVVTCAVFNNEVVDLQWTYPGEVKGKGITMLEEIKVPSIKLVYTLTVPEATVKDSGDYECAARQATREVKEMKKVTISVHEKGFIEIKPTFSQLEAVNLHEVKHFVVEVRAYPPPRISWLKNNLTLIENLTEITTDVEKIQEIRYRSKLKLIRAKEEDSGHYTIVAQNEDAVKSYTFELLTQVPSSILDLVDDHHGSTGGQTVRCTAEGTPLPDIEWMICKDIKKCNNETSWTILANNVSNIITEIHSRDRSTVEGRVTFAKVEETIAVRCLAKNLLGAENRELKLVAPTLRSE

binding: binds
Substance: PDGF-AA (from UniProt P04085) (ligand)

Source: patent publication US7306904
